The list shows a part of the results.
How the values were obtained:
Test in all cases: log2 fold change, soluble protein after heating vs DMSO (PISA); higher = thermal stabilisation; K562 lysate, 10 uM; active = over 0.2 and 3.5 SD of the protein, either way, in both replicates (recomputed)
nilotinib = compound: Cc1cn(-c2cc(NC(=O)c3ccc(C)c(Nc4nccc(-c5cccnc5)n4)c3)cc(C(F)(F)F)c2)cn1 [nilotinib]
Procedure, shortened: (§1)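 Soluble protein was defined as the supernatant remaining after 21,000xg for 90 min, following pooling of heated aliquots and adjustment to 0.5% NP-40 at 4°C. Before that, crude K562 extract at 1 mg/mL protein in PBS pH 7.4 with 1 mM MgCl2 was treated with 10 μM compound for 30 min and heated for 3 min across 48°C-58°C. Quantification used TMTpro 16plex LC-MS/MS with channel sums equalised, and values are log-two fold changes in thermal stability relative to solvent controls from duplicates.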

Chains of the proteins cited; added tags and fusions are not shown. Lines headed by an entry give the natural chain unless they say otherwise; changes in a name come on top.
UniProt P42575: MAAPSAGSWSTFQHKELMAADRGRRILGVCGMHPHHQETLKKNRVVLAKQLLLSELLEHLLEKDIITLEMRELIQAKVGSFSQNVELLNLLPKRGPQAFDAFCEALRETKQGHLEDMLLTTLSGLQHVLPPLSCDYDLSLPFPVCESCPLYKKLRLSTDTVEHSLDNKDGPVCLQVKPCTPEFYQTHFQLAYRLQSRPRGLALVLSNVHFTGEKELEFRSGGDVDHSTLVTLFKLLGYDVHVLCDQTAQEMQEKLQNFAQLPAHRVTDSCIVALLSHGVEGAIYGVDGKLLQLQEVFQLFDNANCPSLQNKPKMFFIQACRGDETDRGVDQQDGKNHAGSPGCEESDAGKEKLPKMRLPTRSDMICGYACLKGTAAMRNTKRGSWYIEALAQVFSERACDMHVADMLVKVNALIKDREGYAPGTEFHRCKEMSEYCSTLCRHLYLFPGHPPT
UniProt P55210: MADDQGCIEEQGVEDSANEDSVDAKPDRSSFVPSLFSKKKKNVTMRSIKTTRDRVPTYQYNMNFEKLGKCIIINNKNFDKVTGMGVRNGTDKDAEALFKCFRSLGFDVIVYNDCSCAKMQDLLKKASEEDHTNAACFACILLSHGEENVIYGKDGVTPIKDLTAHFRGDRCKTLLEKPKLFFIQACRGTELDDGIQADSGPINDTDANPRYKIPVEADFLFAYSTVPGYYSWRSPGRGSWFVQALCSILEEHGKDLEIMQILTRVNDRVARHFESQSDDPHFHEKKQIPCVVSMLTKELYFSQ
UniProt Q96A19: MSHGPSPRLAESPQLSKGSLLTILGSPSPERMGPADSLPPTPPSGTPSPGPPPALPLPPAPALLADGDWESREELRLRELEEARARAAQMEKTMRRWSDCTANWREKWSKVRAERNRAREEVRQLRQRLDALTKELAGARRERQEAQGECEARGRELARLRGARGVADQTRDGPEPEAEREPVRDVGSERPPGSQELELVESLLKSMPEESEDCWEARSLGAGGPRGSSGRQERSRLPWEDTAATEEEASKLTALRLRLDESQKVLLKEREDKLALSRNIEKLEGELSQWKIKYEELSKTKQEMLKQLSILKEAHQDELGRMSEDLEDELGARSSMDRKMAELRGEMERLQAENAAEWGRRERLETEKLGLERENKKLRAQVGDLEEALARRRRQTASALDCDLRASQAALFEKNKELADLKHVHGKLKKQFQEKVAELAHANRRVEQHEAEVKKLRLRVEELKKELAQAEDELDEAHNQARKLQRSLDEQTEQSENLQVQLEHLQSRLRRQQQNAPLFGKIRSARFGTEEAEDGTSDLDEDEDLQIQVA
UniProt Q96EE4: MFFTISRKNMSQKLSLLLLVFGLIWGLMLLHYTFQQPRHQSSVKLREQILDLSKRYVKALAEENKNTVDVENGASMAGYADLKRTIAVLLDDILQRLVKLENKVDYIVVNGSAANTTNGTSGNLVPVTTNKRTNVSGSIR
UniProt Q92851: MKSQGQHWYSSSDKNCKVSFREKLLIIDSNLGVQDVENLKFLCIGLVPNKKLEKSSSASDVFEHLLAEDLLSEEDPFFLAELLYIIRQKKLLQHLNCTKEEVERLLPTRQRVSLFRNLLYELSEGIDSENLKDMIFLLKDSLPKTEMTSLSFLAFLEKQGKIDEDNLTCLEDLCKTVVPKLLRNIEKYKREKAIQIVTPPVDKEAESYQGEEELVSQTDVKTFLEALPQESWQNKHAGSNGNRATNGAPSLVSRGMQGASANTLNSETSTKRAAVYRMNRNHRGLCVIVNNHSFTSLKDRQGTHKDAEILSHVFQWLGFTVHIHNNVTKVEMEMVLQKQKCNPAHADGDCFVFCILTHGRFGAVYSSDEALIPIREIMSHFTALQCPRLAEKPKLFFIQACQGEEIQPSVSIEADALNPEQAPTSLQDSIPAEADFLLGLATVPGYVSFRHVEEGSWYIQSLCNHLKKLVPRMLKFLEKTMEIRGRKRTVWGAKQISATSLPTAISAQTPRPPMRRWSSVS
UniProt Q8WTX7: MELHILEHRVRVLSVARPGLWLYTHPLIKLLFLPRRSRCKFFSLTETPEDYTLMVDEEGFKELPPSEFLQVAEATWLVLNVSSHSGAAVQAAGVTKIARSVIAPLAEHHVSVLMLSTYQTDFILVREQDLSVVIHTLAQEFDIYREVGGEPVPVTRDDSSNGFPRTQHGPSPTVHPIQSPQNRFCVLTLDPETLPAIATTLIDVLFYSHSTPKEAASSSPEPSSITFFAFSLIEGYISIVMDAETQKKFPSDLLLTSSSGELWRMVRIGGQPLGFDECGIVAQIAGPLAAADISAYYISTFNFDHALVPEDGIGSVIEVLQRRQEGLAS
UniProt O14936: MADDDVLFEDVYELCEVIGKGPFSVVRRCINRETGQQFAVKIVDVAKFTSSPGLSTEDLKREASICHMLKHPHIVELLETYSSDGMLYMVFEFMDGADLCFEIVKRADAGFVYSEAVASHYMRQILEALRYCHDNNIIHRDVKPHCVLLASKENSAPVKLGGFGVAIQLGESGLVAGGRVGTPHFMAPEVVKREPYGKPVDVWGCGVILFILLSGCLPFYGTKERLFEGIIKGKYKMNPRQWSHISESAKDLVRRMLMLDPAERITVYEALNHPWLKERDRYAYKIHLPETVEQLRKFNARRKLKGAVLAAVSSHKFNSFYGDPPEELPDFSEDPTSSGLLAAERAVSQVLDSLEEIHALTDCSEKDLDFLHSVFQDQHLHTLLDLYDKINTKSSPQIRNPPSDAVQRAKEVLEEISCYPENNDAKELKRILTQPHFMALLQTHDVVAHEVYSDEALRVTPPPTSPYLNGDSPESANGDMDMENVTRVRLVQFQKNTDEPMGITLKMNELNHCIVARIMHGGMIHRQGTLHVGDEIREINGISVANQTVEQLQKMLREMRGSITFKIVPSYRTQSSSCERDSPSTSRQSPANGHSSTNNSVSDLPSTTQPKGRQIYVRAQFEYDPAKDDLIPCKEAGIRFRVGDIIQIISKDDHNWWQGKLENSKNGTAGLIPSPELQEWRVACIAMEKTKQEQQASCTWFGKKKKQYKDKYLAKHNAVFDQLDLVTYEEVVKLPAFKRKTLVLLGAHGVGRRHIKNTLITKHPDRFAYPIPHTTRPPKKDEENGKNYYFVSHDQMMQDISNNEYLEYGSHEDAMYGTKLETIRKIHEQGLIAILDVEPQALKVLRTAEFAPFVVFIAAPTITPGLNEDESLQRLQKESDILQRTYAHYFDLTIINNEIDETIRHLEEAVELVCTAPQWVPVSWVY
UniProt Q8N9Z2: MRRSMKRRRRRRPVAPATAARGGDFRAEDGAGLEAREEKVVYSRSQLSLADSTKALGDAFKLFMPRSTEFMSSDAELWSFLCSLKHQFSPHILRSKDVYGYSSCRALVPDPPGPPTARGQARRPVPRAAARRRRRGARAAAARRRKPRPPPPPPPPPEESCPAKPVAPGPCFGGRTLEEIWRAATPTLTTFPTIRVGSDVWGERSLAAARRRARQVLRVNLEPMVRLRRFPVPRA
UniProt Q9UKL3: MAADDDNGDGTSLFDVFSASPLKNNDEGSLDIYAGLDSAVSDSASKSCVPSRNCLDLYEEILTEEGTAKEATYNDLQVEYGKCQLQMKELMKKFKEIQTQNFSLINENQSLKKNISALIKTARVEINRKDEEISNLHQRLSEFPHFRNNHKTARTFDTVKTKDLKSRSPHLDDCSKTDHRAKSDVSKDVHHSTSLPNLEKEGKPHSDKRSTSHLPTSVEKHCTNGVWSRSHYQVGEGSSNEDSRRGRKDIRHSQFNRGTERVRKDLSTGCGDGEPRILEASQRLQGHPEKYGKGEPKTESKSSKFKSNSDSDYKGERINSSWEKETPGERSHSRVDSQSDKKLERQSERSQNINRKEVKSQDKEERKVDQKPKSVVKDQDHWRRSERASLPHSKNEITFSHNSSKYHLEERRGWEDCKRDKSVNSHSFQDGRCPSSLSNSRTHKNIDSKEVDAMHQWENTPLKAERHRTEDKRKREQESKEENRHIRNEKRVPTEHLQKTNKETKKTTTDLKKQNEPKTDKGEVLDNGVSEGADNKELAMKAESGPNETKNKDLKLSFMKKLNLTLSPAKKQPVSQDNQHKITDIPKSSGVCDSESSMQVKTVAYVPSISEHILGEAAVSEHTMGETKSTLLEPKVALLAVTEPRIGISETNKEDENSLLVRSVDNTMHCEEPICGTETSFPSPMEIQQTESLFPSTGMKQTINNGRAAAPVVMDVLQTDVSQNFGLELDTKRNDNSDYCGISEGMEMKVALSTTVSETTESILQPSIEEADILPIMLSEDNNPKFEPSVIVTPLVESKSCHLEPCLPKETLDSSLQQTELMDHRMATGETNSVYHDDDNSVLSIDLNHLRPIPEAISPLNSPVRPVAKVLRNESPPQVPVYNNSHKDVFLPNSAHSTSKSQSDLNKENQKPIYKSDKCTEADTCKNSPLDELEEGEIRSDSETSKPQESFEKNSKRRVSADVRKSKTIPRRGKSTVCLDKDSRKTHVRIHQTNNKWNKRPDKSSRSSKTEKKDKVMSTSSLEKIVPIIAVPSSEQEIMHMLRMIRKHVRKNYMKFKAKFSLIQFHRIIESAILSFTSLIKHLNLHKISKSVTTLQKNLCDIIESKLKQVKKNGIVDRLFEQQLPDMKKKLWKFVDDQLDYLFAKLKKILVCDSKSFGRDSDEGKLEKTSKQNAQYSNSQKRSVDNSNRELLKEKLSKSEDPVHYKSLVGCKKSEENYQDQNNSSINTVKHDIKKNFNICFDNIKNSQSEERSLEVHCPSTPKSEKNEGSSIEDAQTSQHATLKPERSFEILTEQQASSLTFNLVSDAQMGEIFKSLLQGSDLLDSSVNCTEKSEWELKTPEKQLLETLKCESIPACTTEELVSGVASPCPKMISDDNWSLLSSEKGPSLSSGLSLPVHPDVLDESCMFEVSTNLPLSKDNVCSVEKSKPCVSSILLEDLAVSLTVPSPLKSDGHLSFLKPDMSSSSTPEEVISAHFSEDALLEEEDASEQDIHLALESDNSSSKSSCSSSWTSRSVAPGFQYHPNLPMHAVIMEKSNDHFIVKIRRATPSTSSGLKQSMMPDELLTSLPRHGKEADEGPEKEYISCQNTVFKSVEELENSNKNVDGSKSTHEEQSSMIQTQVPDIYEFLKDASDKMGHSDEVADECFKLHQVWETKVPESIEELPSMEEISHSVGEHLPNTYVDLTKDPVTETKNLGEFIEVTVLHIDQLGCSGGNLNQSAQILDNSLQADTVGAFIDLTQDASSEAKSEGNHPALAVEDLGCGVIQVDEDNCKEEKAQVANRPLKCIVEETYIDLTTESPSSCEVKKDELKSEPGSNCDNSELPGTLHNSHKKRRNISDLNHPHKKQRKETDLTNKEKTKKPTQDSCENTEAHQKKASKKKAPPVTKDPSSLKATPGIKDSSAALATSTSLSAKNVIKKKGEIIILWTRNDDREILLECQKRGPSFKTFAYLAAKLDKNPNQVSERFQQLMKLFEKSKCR
UniProt Q96JN2: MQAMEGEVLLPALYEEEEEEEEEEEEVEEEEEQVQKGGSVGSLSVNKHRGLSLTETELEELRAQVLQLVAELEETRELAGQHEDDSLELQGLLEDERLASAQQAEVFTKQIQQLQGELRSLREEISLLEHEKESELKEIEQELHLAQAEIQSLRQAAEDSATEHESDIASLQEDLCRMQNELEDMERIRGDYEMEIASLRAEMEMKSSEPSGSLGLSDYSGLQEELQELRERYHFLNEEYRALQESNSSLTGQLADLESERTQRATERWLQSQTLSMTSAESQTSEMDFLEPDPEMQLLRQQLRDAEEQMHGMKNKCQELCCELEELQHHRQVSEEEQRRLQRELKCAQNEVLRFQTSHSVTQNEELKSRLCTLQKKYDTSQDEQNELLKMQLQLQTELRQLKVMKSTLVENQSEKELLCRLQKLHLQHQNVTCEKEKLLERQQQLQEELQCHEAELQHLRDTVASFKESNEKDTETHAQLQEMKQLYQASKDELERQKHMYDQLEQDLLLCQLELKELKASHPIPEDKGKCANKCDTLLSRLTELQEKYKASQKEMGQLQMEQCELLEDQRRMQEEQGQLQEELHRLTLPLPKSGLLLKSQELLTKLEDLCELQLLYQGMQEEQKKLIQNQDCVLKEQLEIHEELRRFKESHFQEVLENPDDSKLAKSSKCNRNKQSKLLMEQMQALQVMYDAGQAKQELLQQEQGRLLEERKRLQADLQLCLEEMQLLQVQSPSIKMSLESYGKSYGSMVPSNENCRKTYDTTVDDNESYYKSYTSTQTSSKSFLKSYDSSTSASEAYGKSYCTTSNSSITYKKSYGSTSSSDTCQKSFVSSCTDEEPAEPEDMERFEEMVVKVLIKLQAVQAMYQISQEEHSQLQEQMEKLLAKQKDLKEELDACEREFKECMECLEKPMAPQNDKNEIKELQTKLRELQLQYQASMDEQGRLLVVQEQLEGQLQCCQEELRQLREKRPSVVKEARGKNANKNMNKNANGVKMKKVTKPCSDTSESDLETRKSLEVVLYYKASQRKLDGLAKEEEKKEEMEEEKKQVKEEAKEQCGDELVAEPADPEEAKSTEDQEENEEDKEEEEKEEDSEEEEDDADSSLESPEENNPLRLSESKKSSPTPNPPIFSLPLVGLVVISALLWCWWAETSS

[1] = compound: Cc1nc(Nc2n[nH]c3c2CN(C(=O)N[C@H](CN(C)C)c2ccccc2)C3(C)C)c2sccc2n1
Procedure, shortened: as §1

dasatinib = compound: Cc1nc(Nc2ncc(C(=O)Nc3c(C)cccc3Cl)s2)cc(N2CCN(CCO)CC2)n1 [dasatinib]
Procedure, shortened: as §1

[2] = compound: Cc1ncc(-c2ccnc(Nc3ccc(S(C)(=O)=O)cc3)n2)n1C(C)C
Procedure, shortened: as §1

[3] = compound: Cn1cc(-c2ccc3c(c2)CCN3C(=O)Cc2cccc(C(F)(F)F)c2)c2c(N)ncnc21
Procedure, shortened: as §1

quisinostat = compound: Cn1cc(CNCC2CCN(c3ncc(C(=O)NO)cn3)CC2)c2ccccc21 [quisinostat]
Procedure, shortened: as §1

tipifarnib = compound: Cn1cncc1[C@@](N)(c1ccc(Cl)cc1)c1ccc2c(c1)c(-c1cccc(Cl)c1)cc(=O)n2C [tipifarnib]
Procedure, shortened: as §1

[4] = compound: NC(=O)Nc1cc(-c2cccc(F)c2)sc1C(=O)N[C@H]1CCCNC1
Procedure, shortened: as §1

[5] = compound: O=C1NC(=O)C(c2cnc3ccccn23)=C1c1cn2c3c(cc(F)cc13)CN(C(=O)N1CCCCC1)CC2
Procedure, shortened: as §1

entospletinib = compound: c1cn2cc(-c3ccc4cn[nH]c4c3)nc(Nc3ccc(N4CCOCC4)cc3)c2n1 [entospletinib]
Procedure, shortened: as §1

[6] = compound: NC(=O)c1cnc(N[C@@H]2CCCC[C@@H]2N)nc1Nc1cccc(-n2nccn2)c1
Procedure, shortened: as §1

[7] = compound: NC1(c2ccc(-c3nc4ccn5c(=O)[nH]nc5c4cc3-c3ccccc3)cc2)CCC1
Procedure, shortened: as §1

[8] = compound: NCC(=O)Nc1ccc(-n2nc(C(F)(F)F)cc2-c2ccc3c(ccc4ccccc43)c2)cc1
Procedure, shortened: as §1

vorinostat = compound: O=C(CCCCCCC(=O)Nc1ccccc1)NO [vorinostat]
Procedure, shortened: as §1

silmitasertib = compound: O=C(O)c1ccc2c(c1)nc(Nc1cccc(Cl)c1)c1ccncc12 [silmitasertib]
Procedure, shortened: as §1

Measured: log2 fold change

CCDC18 (UniProt Q5T9S5)
inactive: nilotinib 0.121 | [1] -0.079 | dasatinib -0.041 | [2] 0.258 | [3] -0.037 | quisinostat -0.246 | tipifarnib -0.102 | [4] 0.045 | [5] 0.05 | entospletinib 0.03

CASP2 (UniProt P42575)
inactive: nilotinib 0.03 | [1] 0.001 | dasatinib 0.019 | [2] 0.006 | [3] -0.026 | quisinostat 0.066 | tipifarnib 0.009 | [4] 0.013 | [6] 0.004 | [7] 0.012 | [8] 0 | vorinostat 0.039 | silmitasertib -0.038 | [5] -0.015 | entospletinib 0.003

CCT8 (UniProt H7C4C8)
inactive: nilotinib -0.18 | [1] 0.177 | [2] 0.255 | quisinostat -0.013 | tipifarnib 0.171 | [4] -0.001 | [5] 0.124

CD53 (UniProt P19397)
inactive: nilotinib -0.085 | [1] 0.037 | [2] -0.014 | quisinostat -0.141 | tipifarnib 0.006 | [4] -0.017 | [6] -0.045 | [7] 0.008 | [8] 0.037 | vorinostat 0.011 | silmitasertib -0.001 | [5] 0.033 | entospletinib 0.007

CASP7 isoform 3 (UniProt P55210)
inactive: nilotinib -0.042 | [1] 0.01 | dasatinib -0.091 | [2] 0.05 | [3] 0.226 | quisinostat -0.016 | tipifarnib 0.049 | [4] 0.022 | [6] 0.106 | [7] 0.063 | vorinostat -0.254 | silmitasertib 0.113 | [5] 0.01 | entospletinib 0.063

CCDC167 (UniProt Q9P0B6)
inactive: nilotinib -0.014 | [1] -0.024 | [2] 0.131 | quisinostat -0.05 | tipifarnib -0.062 | [4] 0.131 | [7] -0.065 | vorinostat 0.096 | silmitasertib 0.16 | [5] 0.046

CCDC186 (UniProt Q7Z3E2)
inactive: nilotinib -0.046 | [1] -0.056 | dasatinib -0.014 | [2] 0.03 | [3] 0.043 | quisinostat -0.03 | tipifarnib -0.01 | [4] 0.033 | [6] -0.017 | [7] 0.001 | [8] 0.052 | vorinostat 0.005 | silmitasertib 0.057 | [5] 0.012 | entospletinib -0.01

CCDC85C (UniProt A6NKD9)
inactive: nilotinib 0.093 | [1] 0.113 | dasatinib -0.062 | [2] -0.111 | [3] 0.004 | quisinostat 0.09 | tipifarnib -0.079 | [4] 0.063 | [6] 0.01 | [8] 0.096 | [5] 0.058 | entospletinib -0.005

CBX2 (UniProt Q14781)
inactive: nilotinib 0.055 | [1] -0.151 | [2] -0.031 | tipifarnib 0.08 | [6] -0.069

2 records drawn at random from those above, as already listed:
CD53 (UniProt P19397)
inactive: nilotinib -0.085 | [1] 0.037 | [2] -0.014 | quisinostat -0.141 | tipifarnib 0.006 | [4] -0.017 | [6] -0.045 | [7] 0.008 | [8] 0.037 | vorinostat 0.011 | silmitasertib -0.001 | [5] 0.033 | entospletinib 0.007

CCDC18 (UniProt Q5T9S5)
inactive: nilotinib 0.121 | [1] -0.079 | dasatinib -0.041 | [2] 0.258 | [3] -0.037 | quisinostat -0.246 | tipifarnib -0.102 | [4] 0.045 | [5] 0.05 | entospletinib 0.03

The results go on.

CCT6B isoform 3 (UniProt Q92526)
inactive: dasatinib -0.053 | [3] -0.084 | [6] 0.099 | [8] 0.069

CD226 (UniProt Q15762)
inactive: [6] 0.093

CCDC102A (UniProt Q96A19)
inactive: quisinostat -0.008 | [4] -0.097 | [7] 0.089 | [8] -0.123 | vorinostat 0.398 | silmitasertib -0.139 | [5] -0.059 | entospletinib -0.036

CCDC175 (UniProt P0C221)
inactive: [6] 0.117 | [8] 0.353 | entospletinib 0.002

CCDC126 (UniProt Q96EE4)
inactive: quisinostat -0.115 | [4] -0.014 | [7] -0.057 | vorinostat -0.026 | silmitasertib -0.059 | [5] -0.058

CCDC127 (UniProt Q96BQ5)
inactive: dasatinib -0.001 | [3] 0.004 | quisinostat 0.035 | [4] -0.029 | [6] 0.039 | [7] -0.008 | vorinostat -0.062 | silmitasertib 0.038 | [5] -0.107 | entospletinib 0.028

CCDC43 isoform 2 (UniProt Q96MW1)
inactive: [7] 0.147 | vorinostat 0.275 | silmitasertib -0.057

CCDC66 (UniProt A2RUB6)
inactive: entospletinib 0.094

CASP10 isoform 2 (UniProt Q92851)
inactive: dasatinib 0.069 | [3] 0.106 | entospletinib 0.088

CASP8 isoform 4 (UniProt Q14790)
inactive: dasatinib -0.141 | [3] -0.201

CAV2 (UniProt P51636)
inactive: dasatinib 0.03 | [3] -0.221 | quisinostat -0.038 | [4] 0.114 | [6] 0.173 | [7] 0.273 | vorinostat 0.114 | silmitasertib -0.227 | [5] -0.064

CASTOR1 (UniProt Q8WTX7)
inactive: quisinostat -0.188 | [4] 0.227 | [5] -0.07

CASK (UniProt O14936)
inactive: dasatinib -0.06 | [3] 0.012 | quisinostat 0.069 | [4] 0.139 | [6] -0.02 | [7] 0.001 | [8] -0.006 | vorinostat 0.064 | silmitasertib -0.062 | [5] -0.095 | entospletinib -0.186

CCNE1 (UniProt P24864)
inactive: dasatinib 0.007 | [3] -0.088 | quisinostat -0.057 | [4] 0.105 | [6] -0.034 | [8] 0.084 | [5] 0.035 | entospletinib -0.149

CCDC71L (UniProt Q8N9Z2)
inactive: dasatinib 0.002 | [3] 0.102

CASP8AP2 (UniProt Q9UKL3)
inactive: quisinostat -0.045 | [4] -0.029 | [5] 0.054 | entospletinib 0.119

CCAR2 (UniProt G3V119)
inactive: [6] -0.015

CCDC130 (UniProt P13994)
inactive: quisinostat -0.583 | [4] -0.183 | [7] 0.259 | vorinostat -0.003 | silmitasertib 0.173 | [5] -0.306 | entospletinib -0.076

CD68 (UniProt P34810)
inactive: quisinostat 0.118 | [4] 0.038 | [7] 0.082 | vorinostat 0.169 | silmitasertib -0.258 | [5] 0.219 | entospletinib 0.071

CCDC136 isoform 4 (UniProt Q96JN2)
inactive: dasatinib 0.153 | [3] 0.037 | quisinostat 0.049 | [4] 0.021 | [7] -0.047 | [8] 0.016 | vorinostat -0.026 | silmitasertib 0.044 | [5] -0.049 | entospletinib -0.001

CD79B isoform 3 (UniProt P40259)
inactive: dasatinib -1.6 | [3] -0.002

CCDC9, A0A2R8Y4Z8
inactive: dasatinib 0.303 | [3] 0.065 | quisinostat 0.023 | [4] 0.357 | [6] -0.45 | [5] 0.173

Reference: the supplement of paper PMC10849652
